In PubChem BioAssay AID190 (DTP/NCI, 2004) one finds T/C and survivor count data, which are given here for one molecule.

The list does not hold the whole screen: it is rich in T/C values a quarter to a half above the control, in often repeated tests (any T/C) and in doses without a T/C. Further doses and runs are listed elsewhere. T/C gives the treated animals as a percentage of the vehicle group. Some entries give survivors of the animals treated and no T/C: the source files T/C as zero there, which appears to mark a toxic dose or a test without result, not a measured value. Some survivor counts are full or nearly so, which does not show that the dose was tolerated: survival well below the control is almost never listed, so the zero probably covers shortened survival too. Counts of survivors are from the toxicity check (mostly the fifth day) where no day follows; animals may have died later. Schedules are NCI's codes, read here as Q, the interval in days (D) or hours (H), X, the number of doses. For survival time, this PubChem deposit counts one and a half times the control or more as active, and values a quarter to a half above the control carry no call in these data; other NCI protocols may use other cut-offs. Some doses were run more than once; the values are given in rising order.

The assay deals with AKR/Lw mice, AKR lymphoma ip, median survival T/C. Kind of assay: NCI In Vivo Anticancer Drug Screen. Data for tumor model Lymphoma AKR (Transplanted) (intraperitoneal) in AKR/Lw mice. The conditions noted are these: T/C endpoint: median survival time, higher T/C = longer survival. The protocol:
The antitumor activity of compounds was measured in mice bearing transplantable tumors. Survival or tumor size were measured and the results are expressed as the measurement made in the treated group (T) divided by the measurement made in the vehicle treated control group (C). The tumor model used in this assay is Lymphoma AKR (Transplanted) (intraperitoneal) in AKR/Lw mice

Setting [1] is: dose: 1.5 mg/kg/injection, schedule: Q04DX008 (ip), vehicle: Klucel (hydroxypropylcellulose) (HPC).

Turning to `N[C@@H](Cc1ccc(N(CCCl)CCCl)cc1)C(=O)O`, the T/C under setting [1] is 134 % of control; the T/C (dose: 2.5 mg/kg/injection, schedule: Q01DX001 (ip), vehicle: Klucel (hydroxypropylcellulose) (HPC)) is 130 % of control; the T/C (dose: 4.0 mg/kg/injection, schedule: Q01DX001 (ip), vehicle: Klucel (hydroxypropylcellulose) (HPC)) was 127 and 141 % of control; the T/C (dose: 9.0 mg/kg/injection, schedule: Q01DX001 (ip), vehicle: Klucel (hydroxypropylcellulose) (HPC)) is 125 % of control. Besides, the survivor count runs as follows: under setting [1], 10 of 10; (dose: 2.5 mg/kg/injection, schedule: Q04DX008 (ip), vehicle: Klucel (hydroxypropylcellulose) (HPC)) 9 of 10; (dose: 3.9 mg/kg/injection, schedule: Q04DX008 (ip), vehicle: Klucel (hydroxypropylcellulose) (HPC)) 10 of 10; (dose: 6.0 mg/kg/injection, schedule: Q04DX008 (ip), vehicle: Klucel (hydroxypropylcellulose) (HPC)) 10 of 10; (dose: 7.7 mg/kg/injection, schedule: Q04DX004 (ip), vehicle: Klucel (hydroxypropylcellulose) (HPC)) 10 of 10; (dose: 7.7 mg/kg/injection, schedule: Q04DX004 (ip), vehicle: saline) 10 of 10. Besides, the survivor count is on record as 10 of 10 (dose: 10.0 mg/kg/injection, schedule: Q04DX008 (ip), vehicle: Klucel (hydroxypropylcellulose) (HPC)); 7 of 10 (dose: 12.0 mg/kg/injection, schedule: Q01DX001 (ip), vehicle: Klucel (hydroxypropylcellulose) (HPC)); 8 of 10 (dose: 20.0 mg/kg/injection, schedule: Q04DX008 (ip), vehicle: Klucel (hydroxypropylcellulose) (HPC)).
